Patent publication US20220184120A1
No constants are given. Whether binding was seen depends on the method and setting. Some binding calls cover weakened binding; strength is not graded here.

Protein sequences, listed by entry. Tags and fused reporters are not part of them. Residues count along the entry.
UniProt P15941, residues 1110-1255: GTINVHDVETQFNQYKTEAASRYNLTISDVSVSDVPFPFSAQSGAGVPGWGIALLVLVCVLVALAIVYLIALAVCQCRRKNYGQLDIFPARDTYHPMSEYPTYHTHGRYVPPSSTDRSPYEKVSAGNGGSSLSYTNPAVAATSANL

Columns and labels:
[1] = target: MUC1* (cleaved MUC1) as it occurs on MUC1/MUC1* positive cancer cell lines (human) (UniProt P15941); experiment: flow cytometry
[2] = target: MUC1 transmembrane cleavage product after cleavage of full-length MUC1 by MMP9 (UniProt P15941); experiment: flow cytometry (FIG. 37)
[3] = target: MUC1 transmembrane cleavage product after cleavage of full-length MUC1 by MMP9 (UniProt P15941); experiment: flow cytometry (FIG. 37 and FIG. 75)
[4] = target: MUC1 transmembrane cleavage product after cleavage of full-length MUC1 by MMP9 (UniProt P15941); experiment: flow cytometry, HCT-MUC1-18 cells + MMP9 (FIG. 37C)
[5] = target: MUC1 transmembrane cleavage product after cleavage of full-length MUC1 by MMP9 (UniProt P15941); experiment: immunofluorescence / flow cytometry, HCT-MUC1-41TR cells + MMP9 (FIG. 37)
[6] = target: MUC1* (cleaved MUC1) as it occurs on MUC1/MUC1* positive cancer cell lines (human) (UniProt P15941); experiment: flow cytometry, MFI (FIG. 76-77); NCI-H1975 more strongly than NCI-H292, HPAF-II better than Capan-1 or DU145
[7] = target: MUC1* (cleaved MUC1) as it occurs on MUC1/MUC1* positive cancer cell lines (human) (UniProt P15941); experiment: flow cytometry, T47D, 1500, NCI-H292, NCI-H1975, SKOV-3, HPAF-II, Capan-1, DU145 (FIG. 77); Capan-1 and DU145 recognized less well
[8] = target: MUC1* (cleaved MUC1) as it occurs on MUC1/MUC1* positive cancer cell lines (human) (UniProt P15941); experiment: flow cytometry (FIG. 4F)
[9] = target: MUC1 transmembrane cleavage product after cleavage of full-length MUC1 by MMP9 (UniProt P15941); experiment: flow cytometry (recap in IHC legend)
[10] = target: MUC1* (cleaved MUC1) as it occurs on MUC1/MUC1* positive cancer cell lines (human) (UniProt P15941); experiment: flow cytometry, ZR-75-1 cells (FIG. 4F)
[11] = target: MUC1* (cleaved MUC1) as it occurs on MUC1/MUC1* positive cancer cell lines (human) (UniProt P15941); experiment: flow cytometry (FIG. 4A-4C)
[12] = target: MUC1* (cleaved MUC1) as it occurs on MUC1/MUC1* positive cancer cell lines (human) (UniProt P15941); experiment: flow cytometry, ZR-75-1 cells, Anti-Penta-His detection (FIG. 4A-4C)

Measured: binding

B1: MN-C2 mouse monoclonal anti-MUC1* antibody (antibody, V domains shown)
VH: EVQLEESGGGLVKPGGSLKLSCAASGFTFSGYAMSWVRQTPEKRLEWVATISSGGTYIYYPDSVKGRFTISRDNAKNTLYLQMSSLRSEDTAMYYCARLGGDNYYEYFDVWGAGTTVTVSS
VL: DIVITQSTASLGVSLGQRATISCRASKSVSTSGYSYMHWYQQRPGQPPKLLIYLASNLESGVPARFSGSGSGTDFTLNIHPVEEEDAATYYCQHSRELPFTFGGGTKLEIKR
binds: [1] | [2] | [3] | [4] | [5] | [6] | [7]

B2: MN-E6 mouse monoclonal anti-MUC1* antibody (antibody, V domains shown)
VH: EVKVVESGGDLVKPGGSLKLSCVVSGFTFSRYGMSWVRQTPGKRLEWVATISGGGTYIYYPDSVKGRFTISRDNAKNTLYLQMSSLKSEDTAMYHCTRDNYGRNYDYGMDYWGQGTSVTVSS
VL: QIVLTQSPAIMSASPGEEVTLTCSATSSVSYIHWFQQRPGTSPKLWIYSTSNLASGVPVRFSGSGYGTSYSLTISRMEAEDAATYYCQQRSSSPFTFGSGTKLEIK
binds: [8] | [9] | [3] | [10]

B3: humanized MN-C2 scFv (scFv, not shown: small tags and cut ends)
scFv: EVQLVESGGGLVKPGGSLRLSCAASGFTFSGYAMSWVRQAPGKGLEWVSTISSGGTYIYYPDSVKGRFTISRDNAKNSLYLQMNSLRAEDTAVYYCARLGGDNYYEYFDVWGKGTTVTVSSGGGGSGGGGSGGGGSDIVLTQSPASLAVSPGQRATITCRASKSVSTSGYSYMHWYQQKPGQPPKLLIYLASNLESGVPARFSGSGSGTDFTLTINPVEANDTANYYCQHSRELPFTFGGGTKVEIKRT
binds: [11] | [9] | [12]

B4: 3C2B1 mouse monoclonal antibody (antibody, V domains shown)
VH: EVMLVESGGGLVKPGGSLKLSCAASGITFSTYTMSWVRQTPEKRLEWVATISTGGDKTYYSDSVKGRFTISRDNAKNNLYLQMSSLRSEDTALYYCARGTTAMYYYAMDYWGQGTSVTVSS
VL: DIVLTQSPASLAVSLGQRATISCRASKSISTSDYNYIHWYQQKPGQPPKLLIYLASNLESGVPARFSGSGSGTDFTLNIHPVEEEDAATYYCQHSRELPLTFGAGTKLELK
binds: [9]
